Source: article PMC12464105
For at least one entry, the source does not settle the construct or the ends of the probe. Where cells or extracts were used, other partners may take part. At least one verdict rests on a figure or table, not on a statement of the authors.

Chains of the proteins cited; added tags and fusions are not shown. Residues count along the entry.
UniProt P08962, 2-238: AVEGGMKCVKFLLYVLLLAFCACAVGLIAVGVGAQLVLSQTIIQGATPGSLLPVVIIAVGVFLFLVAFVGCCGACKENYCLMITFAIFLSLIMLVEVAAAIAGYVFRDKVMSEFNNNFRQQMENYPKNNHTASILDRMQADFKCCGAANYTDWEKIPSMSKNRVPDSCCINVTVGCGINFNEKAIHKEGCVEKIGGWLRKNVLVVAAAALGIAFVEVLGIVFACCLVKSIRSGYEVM

Molecular target: CD63 on extracellular vesicles (UniProt P08962)
Assay: fluorescence strand displacement on streptavidin magnetic beads
Conditions: EVs 3.5*10^4 particles/mL, Blocker released on EV binding; 3' biotin on aptamer; Aptamer/Blocker annealed in PBS (95 C 5 min, cooled); EVs incubated with Apt63 beads 1 h at 37 C; pH and binding buffer composition not given; protein on the cell surface

## ATATACACCCCACCTCGCTCCCGTGACACTAATGCTATTTTTT / TGGGGTGTATATTAATACGACTCACTATAGGG [CD63 aptamer/Blocker (Apt63)]
  binding result: binds
